{
  "source": "patent US8536121B2",
  "about": "“Methods and reagents for the diagnosis, prevention and treatment of insulin resistance using beta-arrestin2 and its up-regulators” (Shanghai Institutes for Biological Sciences, CAS, priority 2008, dated 2013)",
  "key": {"Akt": {"tested_on": "Akt", "experiment": "Insulin-stimulated Akt phosphorylation in Hep3B hepatocytes treated with inhibitors (immunoblot)", "assay_type": "cell-based, human", "details": "10 μM PP2 or 100 nM Wortmannin for 30 min, then 100 nM insulin", "procedure": "FIG. 4A, Activation of PI3K by insulin in livers of βarr2-ko mice (n=6), βarr2-tg mice (n=6) and their wild type littermates (n=6). Mice were injected with either saline or insulin (1 U·kg^−1) for 10 min. PI3K were immuno-purified from liver extracts and PI3K activity were measured by ELISA. Data are presented as mean ±s.e.m. *P<0.05, **P<0.005, versus control. FIG. 4B, FIG. 4C, Activation of Akt and downstream targets by insulin in livers of βarr2-ko mice (n=6) (FIG. 4B), βarr2-tg mice (n=6) (FIG. 4C) and their wild type littermates (n=6). Liver protein extracts prepared as in A were used for immunoblot analysis of pAkt, pFoxol, and pGSK3. […] FIG. 4E, Src-dependent activation of Akt. Hep3B hepatocytes were treated with or without 10 μM Src inhibitor PP2 or 100 nM PI3K inhibitor Wortmanin for 30 min, and then stimulated by 100 nM insulin. Phosphorylation levels of Akt at serine/threonine or tyrosine (n=6) were shown. […]\nAfter mouse is sacrificed, mouse tissues are quickly excised and frozen in liquid nitrogen. Tissue lysate is prepared and protein concentration is determined by Bradford method. […] For immunoblotting, protein bands, emitting infrared fluorescence through excitation of IRDye800CW conjugated secondary antibody, are obtained by Odyssey infrared imaging system, followed by using Scion Image software (Li-Cor Bioscience, Lincoln, Nebr., USA) to perform quantitative analysis. […]"}, "[1]": {"tested_on": "IR/Akt/βarrestin2/Src signal complex", "experiment": "Immunoprecipitation by anti-IR or anti-Src in Wortmannin-treated Hep3B hepatocytes", "assay_type": "cell-based, human", "details": "100 nM Wortmannin 30 min, then 100 nM insulin 10 min"}},
  "note": "At least one structure is not confirmed: it was looked up by name or label, or the drawing left a doubt.",
  "data": [
    {"smiles": "COC[C@H]1OC(=O)c2coc3c2[C@@]1(C)C1=C(C3=O)[C@@H]2CCC(=O)[C@@]2(C)C[C@H]1OC(C)=O", "note": "[Wortmannin]", "values": [
      {"measurement": "serine/threonine phosphorylation of Akt", "setting": "Akt", "value": "abolished"},
      {"measurement": "tyrosine phosphorylation of Akt", "setting": "Akt", "value": "abolished"},
      {"measurement": "interaction between βarrestin2 and IR", "setting": "[1]", "value": "insensitive"},
      {"measurement": "βarrestin2 scaffolded Akt/Src interaction", "setting": "[1]", "value": "inhibits"}
    ]}
  ]
}
